Results taken from publication PMC2785718, “Structure/function studies of dogfish α-crystallin, comparison with bovine α-crystallin” (Molecular Vision, 2009).
No constants are given. Whether binding was seen depends on the method and setting. Some binding calls cover weakened binding; strength is not graded here.

Molecular target: T1, dogfish αB-crystallin (spiny dogfish (endogenous in lens)) (UniProt P02512)
T1 sequence: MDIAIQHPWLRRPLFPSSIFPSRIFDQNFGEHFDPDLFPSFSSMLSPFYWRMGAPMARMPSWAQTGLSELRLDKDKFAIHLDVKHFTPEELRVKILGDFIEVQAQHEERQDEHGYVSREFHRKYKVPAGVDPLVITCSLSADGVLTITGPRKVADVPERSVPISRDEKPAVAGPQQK
Test: AUC; sedimentation velocity of the isolated native α-crystallin; both purified

B1: dogfish αA-crystallin (natural protein, spiny dogfish (endogenous in lens), UniProt P02509 1-177, looked up)
chain: MDLAIQYPWFRRSLGSFYPSRLFDQFFGEGLFDYDLFPFFSSTISPYYRQSVFRNFLDSGISEVRSEKDRFMINLNVKHFSPEELSVKIVDDYVEIHGKHAERQEDQGRVSREFHRTYHLPSNLNESAIACSLSNEGLLTLCCPKTRPGDDSNWQDRPIPVSREEKQGTQPEIRADP
notes: αA-crystallin polypeptide of spiny dogfish lens α-crystallin; native subunit, not separated from αB-crystallin; tryptophan at positions 9 and 154; Native polypeptide from lens; also called αA chain; αA-crystallin subunit
In the case of B1, the binding is reported as “binds”.
